In PMC5359613:

B1: MadC protein of Phycomyces blakesleeanus (Ras GTPase activating protein) (protein, UniProt A0A1U9IW06 1-821)
chain: MAGHTHVLSDSHSRTIPSDYLANSTIVSRAMAAAAANNHHNAHAIRRGRQSHRYDVSVFYSMAAEQDIEIEDDLALAQRTLRDFKSNISAQSKKNFMLERDVRFLDSRIALLIQNRMALDEQTEVVSHLEYHDDDTEGHYPDDRKMQQYGSLFFLLQCEPRHMATLCRLVRLSEIDTLLQTVMFTLYGNQYESREEHLLLTMFQNVLAAQFETTSEFASLLRANTPVSRMMTTYTRRGPGQSYLKLVLSDRINRLIEQVDLNLQINPLKVYEELILAAEEGREEDQGLERGISAEGAAAHPQVKATIKPRLALLMETAESFLDTILGSLDKVPYGIRWICKQIRSLTRRKYPDASDSAIASLIGGFFFLRFINPAIVTPQAYMLVDNLPKNHPRAVLTLVAKLLQNLANKPAYAKESYMIPTNSFIEKNKQRINKFLNDLCEVGDFYESLEMDQYMTLSKKDIIINITPNEIYNTLALLQQHIDILAPKPTDHLRVLVSELGTALPQVARQHNKPIELPLFSRWEIPIQDLTMALMSENNITQSDITYMETKAIFVQIIRSLPYLSRPPLQLAQILETANTAKDPLLTRKGLKVTEMLDELERMGVIHRQDGYKLLVEEITQELAHLGDLKDKVVEEMGSLEGVYKTILDHNNYLKIQLESYRAYLQNVRMLSIGNTKEAVHHGHEPALAEKQVGLGVALTTGKTAKKTVKSQHLQGPFKFSHQQLEREGVIAETEVAEHRRCNIFLSVLSPLPGTFIISLHYKGRERPVLEIDLKLDDLLERQQDNVQLLDLEYMKLHVTKTLQLLTKTFMTKNKTGFFS

Experiments:
Test in all cases: two-hybrid; Gal4 activation domain (pGADT7) and DNA binding domain (pGBKT7) fusions co-transformed into S. cerevisiae PJ69-4A; growth on -histidine + 0.5 mM 3-amino triazole or -adenine, and β-galactosidase activity
[1] = biological target: T1, MadB of Phycomyces blakesleeanus (homolog of N. crassa WC-2) (Phycomyces blakesleeanus) (UniProt B5M9P7)
T1 sequence: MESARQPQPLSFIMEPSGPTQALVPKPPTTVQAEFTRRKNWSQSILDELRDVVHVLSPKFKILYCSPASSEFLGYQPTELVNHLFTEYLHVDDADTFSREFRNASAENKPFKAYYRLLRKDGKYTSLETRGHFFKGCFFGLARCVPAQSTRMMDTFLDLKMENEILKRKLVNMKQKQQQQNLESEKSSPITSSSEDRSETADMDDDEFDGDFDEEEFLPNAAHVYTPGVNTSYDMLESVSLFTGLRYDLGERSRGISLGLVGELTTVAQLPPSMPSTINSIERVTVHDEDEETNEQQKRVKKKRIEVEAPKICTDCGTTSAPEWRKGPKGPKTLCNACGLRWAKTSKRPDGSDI

[2] = biological target: RasA, Ras homolog of Phycomyces blakesleeanus (Phycomyces blakesleeanus)
[3] = biological target: MadA of Phycomyces blakesleeanus (homolog of N. crassa WC-1) (Phycomyces blakesleeanus)
[4] = biological target: RasB, Ras homolog of Phycomyces blakesleeanus (Phycomyces blakesleeanus)

Molecule | binding [1] | binding [2] | binding [3] | binding [4]
MadA of Phycomyces blakesleeanus (homolog of N. crassa WC-1) | binds |  |  | 
B1 |  | binds | no binding | binds

These are yes or no findings as the source states them, for the method shown. For some of these results: Binding calls can cover weak binding; strength is not graded here. Where a sequence is shown, tags or fusion partners need not be part of it.
